Results on 7 substances are retold here after article PMC10265003 (Royal Society Open Science, 2023).

The data set is described as follows: general procedure: Fmoc solid-phase peptide synthesis; Rink amide resin; DCC/6-Cl-HOBt. The settings on record: whole synthesis, scale of the general procedure 0.1 g resin; for final HPLC purity: 210 nm.

HELM strings list residues between dots; [ac] is acetyl, [am] amide, other brackets name non-standard units.

Consider (RRWQWR-2-Abz-KKLG)2-K-Ahx, for which the “final HPLC purity” value was determined as 76%, the difficulty met entry is “difficulty of quantitatively completing the incorporation of the unnatural amino acid” and the isolated yield was 68%.

On to (RRWQWR-4-Abz-KKLG)2-K-Ahx, for which the “final HPLC purity” value is given as 74%, the difficulty met entry is “difficulty of quantitatively completing the incorporation of the unnatural amino acid” and the isolated yield worked out at 38%.

Regarding “PEPTIDE1{R.R.W.Q.W.R.F.K.K.L.G.K.[Ahx].[am]}|PEPTIDE2{R.R.W.Q.W.R.F.K.K.L.G}$PEPTIDE2,PEPTIDE1,11:R2-12:R3$$$V2.0”, the “final HPLC purity” value is 95% and the isolated yield is recorded as 82%.

On to “PEPTIDE1{R.R.W.Q.W.R.[1-Nal].K.K.L.G.K.[Ahx].[am]}|PEPTIDE2{R.R.W.Q.W.R.[1-Nal].K.K.L.G}$PEPTIDE2,PEPTIDE1,11:R2-12:R3$$$V2.0”, for which the “final HPLC purity” value is 91% and the isolated yield worked out at 82%.

With “PEPTIDE1{R.R.W.Q.W.R.[Bpa].K.K.L.G.K.[Ahx].[am]}|PEPTIDE2{R.R.W.Q.W.R.[Bpa].K.K.L.G}$PEPTIDE2,PEPTIDE1,11:R2-12:R3$$$V2.0”, the “final HPLC purity” value is 76%, the difficulty met entry is reported as “difficulty of quantitatively completing the incorporation of the unnatural amino acid” and the isolated yield is listed as 68%.

As for “PEPTIDE1{R.R.W.Q.W.R.[Dip].K.K.L.G.K.[Ahx].[am]}|PEPTIDE2{R.R.W.Q.W.R.[Dip].K.K.L.G}$PEPTIDE2,PEPTIDE1,11:R2-12:R3$$$V2.0”, the “final HPLC purity” value is 86%, the difficulty met result was “difficulty of quantitatively completing the incorporation of the unnatural amino acid” and the isolated yield is listed as 86%.

As for “PEPTIDE1{R.R.W.Q.W.R.[hF].K.K.L.G.K.[Ahx].[am]}|PEPTIDE2{R.R.W.Q.W.R.[hF].K.K.L.G}$PEPTIDE2,PEPTIDE1,11:R2-12:R3$$$V2.0”, the “final HPLC purity” value worked out at 94% and the isolated yield is 74%.
